Reference: PMC11016940
No constants are given. Whether binding was seen depends on the method and setting. Binding seen in cells or lysates may run through a third protein. Some entries that bind do so weakly or less than the wild type.

Chains of the proteins cited; added tags and fusions are not shown.
UniProt Q9Y3D6: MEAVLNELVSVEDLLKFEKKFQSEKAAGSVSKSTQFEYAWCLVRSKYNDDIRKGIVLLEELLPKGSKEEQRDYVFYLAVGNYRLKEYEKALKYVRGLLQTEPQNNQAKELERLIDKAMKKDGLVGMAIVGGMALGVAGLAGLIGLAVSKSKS
UniProt Q8K1M6: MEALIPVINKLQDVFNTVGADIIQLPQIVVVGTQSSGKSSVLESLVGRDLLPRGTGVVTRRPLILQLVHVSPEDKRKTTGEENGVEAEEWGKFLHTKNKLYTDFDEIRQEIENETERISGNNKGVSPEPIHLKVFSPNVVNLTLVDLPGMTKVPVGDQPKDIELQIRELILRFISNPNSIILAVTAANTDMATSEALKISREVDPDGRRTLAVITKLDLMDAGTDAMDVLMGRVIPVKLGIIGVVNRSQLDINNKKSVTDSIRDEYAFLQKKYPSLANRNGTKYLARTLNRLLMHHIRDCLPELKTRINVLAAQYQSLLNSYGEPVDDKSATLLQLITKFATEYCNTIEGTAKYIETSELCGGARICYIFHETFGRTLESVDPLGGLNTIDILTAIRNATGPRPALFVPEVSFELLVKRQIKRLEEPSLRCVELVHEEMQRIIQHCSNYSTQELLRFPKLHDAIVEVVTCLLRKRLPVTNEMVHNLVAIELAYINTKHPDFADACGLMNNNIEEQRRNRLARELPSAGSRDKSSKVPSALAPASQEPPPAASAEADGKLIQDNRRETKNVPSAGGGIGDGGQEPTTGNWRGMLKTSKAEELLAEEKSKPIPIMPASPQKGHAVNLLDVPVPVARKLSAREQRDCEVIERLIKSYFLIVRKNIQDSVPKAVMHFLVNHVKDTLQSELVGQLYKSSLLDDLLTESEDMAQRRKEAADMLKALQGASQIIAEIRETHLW
UniProt O00429: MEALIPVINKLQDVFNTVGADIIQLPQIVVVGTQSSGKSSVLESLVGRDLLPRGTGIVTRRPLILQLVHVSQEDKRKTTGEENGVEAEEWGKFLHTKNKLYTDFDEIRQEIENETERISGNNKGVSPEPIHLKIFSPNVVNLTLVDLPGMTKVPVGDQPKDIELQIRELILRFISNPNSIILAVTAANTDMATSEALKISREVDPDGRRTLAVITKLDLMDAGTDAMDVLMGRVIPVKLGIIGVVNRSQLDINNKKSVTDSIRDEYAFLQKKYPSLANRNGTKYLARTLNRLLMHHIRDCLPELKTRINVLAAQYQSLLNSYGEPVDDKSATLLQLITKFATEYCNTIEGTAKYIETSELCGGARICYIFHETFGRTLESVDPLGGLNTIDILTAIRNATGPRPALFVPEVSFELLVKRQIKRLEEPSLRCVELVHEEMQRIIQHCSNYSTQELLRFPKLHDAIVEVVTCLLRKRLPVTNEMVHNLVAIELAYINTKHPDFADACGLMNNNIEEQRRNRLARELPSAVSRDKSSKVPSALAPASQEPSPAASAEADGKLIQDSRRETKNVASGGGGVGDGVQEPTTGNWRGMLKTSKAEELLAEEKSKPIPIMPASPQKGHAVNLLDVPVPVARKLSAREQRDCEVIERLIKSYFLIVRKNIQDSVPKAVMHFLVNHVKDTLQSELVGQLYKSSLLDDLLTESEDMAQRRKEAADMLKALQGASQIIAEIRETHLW

How the values were obtained:
[1] = biological target: T1, Fis1, mouse (mouse (endogenous in mouse gastric mucosa)) (UniProt Q9CQ92); test: co-IP; endogenous proteins of gastric tissue / primary gastric epithelial cells of SO and PHT mice with or without PX-478; kit (Thermo Scientific), 4 µg antibody to Fis1 or Drp1; interaction found in mitochondria
T1 sequence: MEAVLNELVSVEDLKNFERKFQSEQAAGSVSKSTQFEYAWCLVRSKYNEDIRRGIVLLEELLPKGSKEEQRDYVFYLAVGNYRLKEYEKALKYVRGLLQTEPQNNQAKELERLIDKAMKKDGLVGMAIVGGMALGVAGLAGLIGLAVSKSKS

[2] = biological target: Fis1, human, in SGC7901 xenograft tumours (human (endogenous in SGC7901)) (UniProt Q9Y3D6); test: co-IP; endogenous proteins in mitochondria of SGC7901 xenograft tumours, mice without PX-478; kit (Thermo Scientific), 4 µg antibody to Fis1 or Drp1
[3] = biological target: Fis1, human, in SGC7901 xenograft tumours (human (endogenous in SGC7901)) (UniProt Q9Y3D6); test: condition: only xenograft mice treated with PX-478 (HIF-1α inhibitor); co-IP; endogenous proteins in mitochondria of SGC7901 xenograft tumours, mice treated with PX-478 (HIF-1α inhibitor); kit (Thermo Scientific), 4 µg antibody to Fis1 or Drp1

Row | Substance | binding [1] | binding [2] | binding [3]
1 | Dynamin‐related protein 1 (Drp1), mouse (from UniProt Q8K1M6 1-736) | binds | – | –
2 | Dynamin‐related protein 1 (Drp1), human, in SGC7901 xenograft tumours (from UniProt O00429 1-736) | – | binds | no binding
